Data published in paper PMC10259659.
These are yes or no findings as the source states them, for the method shown. Binding seen in cells or lysates may run through a third protein. For part of these data: A result given as binding can be weak or reduced; the word gives no strength. Tags and fused reporters may be left off the sequences shown.

Sequences of proteins named here, by UniProt entry; tags and fusion partners are left off. A change or cut given only in a name is not applied to a line headed by its entry.
UniProt Q8IU00: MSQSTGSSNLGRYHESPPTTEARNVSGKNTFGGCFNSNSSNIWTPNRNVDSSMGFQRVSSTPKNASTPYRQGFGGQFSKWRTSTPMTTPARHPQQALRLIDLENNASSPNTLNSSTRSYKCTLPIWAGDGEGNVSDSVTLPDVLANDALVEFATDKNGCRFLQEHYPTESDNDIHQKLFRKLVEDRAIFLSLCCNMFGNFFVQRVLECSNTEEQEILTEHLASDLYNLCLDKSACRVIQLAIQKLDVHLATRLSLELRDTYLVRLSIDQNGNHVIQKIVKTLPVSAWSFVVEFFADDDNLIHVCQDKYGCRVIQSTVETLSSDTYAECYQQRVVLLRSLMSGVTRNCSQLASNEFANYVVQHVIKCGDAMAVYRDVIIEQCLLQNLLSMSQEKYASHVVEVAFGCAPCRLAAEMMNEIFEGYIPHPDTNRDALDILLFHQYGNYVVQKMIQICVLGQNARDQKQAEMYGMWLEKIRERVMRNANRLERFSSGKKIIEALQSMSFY

T1: LST-1^FLAG (C. elegans) (UniProt P91820)
T1 sequence: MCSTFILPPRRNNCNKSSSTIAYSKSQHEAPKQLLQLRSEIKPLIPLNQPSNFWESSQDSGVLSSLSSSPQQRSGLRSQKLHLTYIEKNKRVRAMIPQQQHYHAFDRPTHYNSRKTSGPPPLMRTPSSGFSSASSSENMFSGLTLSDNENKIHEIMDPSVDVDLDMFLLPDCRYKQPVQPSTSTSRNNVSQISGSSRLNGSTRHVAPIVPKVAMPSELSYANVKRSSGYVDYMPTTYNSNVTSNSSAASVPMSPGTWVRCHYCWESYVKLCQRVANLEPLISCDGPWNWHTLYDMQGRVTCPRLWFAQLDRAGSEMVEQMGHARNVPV


Tests used:
LST-1^FLAG (C. elegans) = target: T1, LST-1^FLAG (C. elegans); experiment: co-IP; whole worms (glp-1(gf ts) adults with germline tumors, at least 10^6), cross-linked with 1% formaldehyde; lysis buffer with 1 M urea; epitope-tagged LST-1 immunoprecipitated with anti-V5 or anti-FLAG on protein G Dynabeads, 4 h at 4°C with RNase A 10 μg/ml; washes up to 0.5 M NaCl; western blot
[1] = target: LST-1(A^mB^m)^V5 (PIM-defective LST-1 mutant with 3xV5 epitope tag) (C. elegans) (UniProt P91820); experiment: as above

Row | binding (LST-1^FLAG (C. elegans)) | binding [1] | Molecule
1 | binds |  | PUF-11 (epitope-tagged) (from UniProt Q8IU00)
2 | no binding |  | PUF-8 (epitope-tagged) (C. elegans)
3 |  | no binding | FBF-1^FLAG (protein, UniProt Q9N5M6 1-614) MDQSKMRYTNQFRKTPQKPTSTEVGNHHTPAHSPMAQHETSMWNFNSLNPYFSMLNMNDGMNYARHQQNHIVTSRPPTPLTDLMSLRSFQSFPNVFMPVSRSRTSSFIQSDTDSSRLEPDDFSQNVRYCSTEIDRNNSSSKNDHLKYSRPALSRNSRSFTRSNNVLPTWSLDSNGEMRSRLSLSEVLDSGDLMKFAVDKTGCQFLEKAVKGSLTSYQKFQLFEQVIGRKDDFLKLSTNIFGNYFVQEIIGMSLTTYDDDNIKRQEKLKNFISSQMTDMCLDKFACRVIQSSLQNMDLSLACKLVQALPRDARLIAICVDQNANHVIQKVVAVIPLKNWEFIVDFVATPEHLRQICFDKYGCRVVQTIIEKLTADSINVDLTSAAQHLRERALQRLMTSVTNRCQELATNEYANYIIQHIVSNDDLAVYRECIIEKCLMRNLLSLSQEKFASHVVEKAFLHAPMELLAEMMDEIFDGYMPHPGTGKDALDIMMFHQFGNYVVQCMLTICCDAVSGRRQTKEGSYDHANSFQVWLKKLHSRVTKERHRLSRFSSGKKMIETLAHLRSTHPIYGLQSSGHESFKTDCFSTASEHDGLELEKNGIEEGNLRLMRTFSP
